Data as given in PubChem BioAssay AID1508597 (Cure First, 2020)
This is a random part of the about 2,100 reagents, in one setting of the screen. 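Calls flag viability under 80% in either arm, not effects specific to rucaparib; the reference for percent is not stated.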 A reagent listed more than once was tested more than once; the source does not tell the runs apart. The record does not give: the 100% reference.

Purpose: 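Knock-downs altering ovarian cancer cell survival with or without PARP inhibitor rucaparib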 (primary screen)
Cells: human ovarian carcinoma lines grown from tumours: OCI-P5x (papillary serous) and OCI-C5x (clear cell)
Knock-down reagent: siRNA pool against human genes, 1.25 pmol siRNA per well
Timing: 72 h or 96 h, depending on the cell culture
Conditions: rucaparib 20 µM (about IC30) or vehicle, present until read-out
Rucaparib or vehicle: Vehicle
Cell line: OCI-C5x (clear cell)
Detection: 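ATP luminescence measured at 72 or 96 h according to the culture, then normalised and expressed as percent viability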
Scale: viability, normalised: higher = more viable cells remaining
Active means: 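Active when normalised viability falls below 80 percent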
Calls: active = viability under 80%; inactive = viability 80% or more

no.	gene symbol	technical replicate	viability, normalised (%)	Call
1	JADE1	1	47.3	active
2	JADE1	2	54.7	active
3	JADE1	3	39.6	active
4	CSNK1A1	1	58	active
5	CSNK1A1	2	40.8	active
6	CSNK1A1	3	56.9	active
7	RIOK1	1	57.2	active
8	RIOK1	2	54.5	active
9	RIOK1	3	58.8	active
10	NOTCH3	1	55.4	active
11	NOTCH3	2	62.5	active
12	NOTCH3	3	61.1	active
13	MAPK6	1	60.1	active
14	MAPK6	2	57.8	active
15	MAPK6	3	48	active
16	CDKL1	1	58.9	active
17	CDKL1	2	70.5	active
18	CDKL1	3	65.5	active
19	ASH1L	1	48.6	active
20	ASH1L	2	69.7	active
21	ASH1L	3	64	active
22	HDAC11	1	35.9	active
23	HDAC11	2	41.6	active
24	HDAC11	3	58.2	active
25	POT1	1	91.6	inactive
26	POT1	2	51.3	active
27	POT1	3	63.8	active
28	SETD4	1	55.9	active
29	SETD4	2	61.4	active
30	SETD4	3	64.7	active
31	TAOK3	1	73.3	active
32	TAOK3	2	51.1	active
33	TAOK3	3	64.3	active
34	CLDN10	1	24.9	active
35	CLDN10	2	50.8	active
36	CLDN10	3	41.9	active
37	CHMP2B	1	42.5	active
38	CHMP2B	2	40.1	active
39	CHMP2B	3	42.3	active
40	STKLD1	1	72.8	active
41	STKLD1	2	64.2	active
42	STKLD1	3	51.4	active
43	SPHK1	1	134	inactive
44	SPHK1	2	33.7	active
45	SPHK1	3	68.6	active
46	DDX54	1	33	active
47	DDX54	2	30.7	active
48	DDX54	3	32.5	active
49	MAD2L2	1	50.7	active
50	MAD2L2	2	60.3	active
51	MAD2L2	3	42.8	active
52	FAM91A1	1	72.9	active
53	FAM91A1	2	62.7	active
54	FAM91A1	3	84.7	inactive
55	SETMAR	1	58.4	active
56	SETMAR	1	66.3	active
57	SETMAR	2	63.5	active
58	SETMAR	2	37.5	active
59	SETMAR	3	56.7	active
60	SETMAR	3	41.2	active
